Measured values published in PubChem BioAssay AID2417 (National Center for Advancing Translational Sciences (NCATS), 2010).
The campaign covered roughly 140,000 compounds. About 4,300 (3.1%) were called active. Inconclusive means that the source gave no clear call. Such entries were picked first, then a sample of the others.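 The calls were made as follows: active = readout at or below -70, meaning at least 70% loss of cells showing the perinucleolar compartment, a nuclear body marking cancer cells; inconclusive = readout between -30 and a set limit; inactive = the rest.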

Test: High Content Assay for Compounds that inhibit the Assembly of the Perinucleolar Compartment;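 also: plate controls were DMSO wells for no effect and camptothecin positive control wells for full effect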
Settings: PC3M PTB-GFP, PNC prevalence imaging, 16 h; at 10 µM; active compounds read low
How it was run: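 Compounds are pinned in duplicate onto adhered PC3M cells stably expressing GFP-tagged PTB and incubated 16 h at 37 C. Cells are then fixed, nuclei stained with Hoechst, and PNC-positive cells counted.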

| SMILES | activity change (PNC), negative = inhibition |
| --- | --- |
| CCOc1ccc(-n2cnnn2)cc1S(=O)(=O)NC1CC1 | inactive: -13.1% |
| CCOC(=O)/C=C1\CC(=O)Nc2cc(C)c(C)cc2N1 | inactive: -10.3% |
| O=C(CSc1nc(-c2ccco2)cc(C(F)(F)F)n1)Nc1ccc(C(=O)N2CCOCC2)cc1 | active: -100% |
| CN1CCN(c2ccc(Cl)cc2NC(=O)c2ccc(S(=O)(=O)N(C)C)cc2)CC1 | inconclusive: -50% |
| CC1CCC2(CC1)NC(=O)N(CC(=O)NC(=O)NC1CCCC1)C2=O (stereo unspecified) | inconclusive: -36.8% |
| CCCCN(CC)S(=O)(=O)N1CCC(C(=O)NCCCN2CCOCC2)CC1 | inactive: 0.409% |
| COc1ccc(CN2C(=O)c3ccccc3C2C(=O)NC2CCCC2)c(OC)c1 (stereo unspecified) | inconclusive: -31.1% |
| Cc1nnsc1NC(=O)OCC(C)(C)C | inconclusive: -46.2% |
| O=C(c1ccc2c(c1)OCO2)N1CCN(c2ccc(Cl)cc2)CC1 | inactive: -13.8% |
| COc1ccccc1C1C(C(=O)c2sc(C)nc2C)=C(O)C(=O)N1CCN1CCOCC1 (stereo unspecified) | inactive: 21.4% |
| O=C1CCC(=O)N1CN(C(=O)c1ccco1)c1ccc(Cl)c(Cl)c1 | inconclusive: -36.9% |
| COc1ccc(NC(=O)C2CCN(C(=O)c3cccs3)CC2)cc1OC | inactive: -6.69% |
| Cc1cc(=O)n(CCO)c(O)c1C#N | inconclusive: -52.9% |
| CCSC1=NC(=O)/C(=C2/C=Cc3ccccc3N2CC)S1 | inactive: 11% |
| COc1ccc(N2C(=O)CC(SC(C)C)C2=O)cc1 (stereo unspecified) | inactive: 36.9% |
| C=CCNC(=O)c1oc2ccc(S(=O)(=O)N(CC)CC)cc2c1C | inactive: -28.8% |
| O=C(Nc1ccccc1)c1ccc(Br)c(S(=O)(=O)Nc2cccnc2)c1 | inconclusive: -30.3% |
| COc1ccc(OC)c(NC(=O)C(=O)/C=C(\O)c2cc(OC)ccc2OC)c1 | inconclusive: -30.6% |
| CCN(CC)S(=O)(=O)c1cccc2nsnc12 | inconclusive: -53.4% |
| O=C(OCC(=O)N1CCN(C(=O)c2ccco2)CC1)c1ccccc1OCc1ccc(Cl)cc1 | inconclusive: -32% |
| Cc1ccc(CNC(=O)C(=O)NCC2OCCN2C(=O)c2cccs2)cc1 (stereo unspecified) | inactive: 77.1% |
| CCOc1ccc(NS(=O)(=O)c2cc(NC(=O)c3cccc(C)c3)ccc2Cl)cc1 | inconclusive: -43.8% |
| O=C(Cc1cccc2ccccc12)Nc1ccc2oc(-c3ccccc3)nc2c1 | inconclusive: -73.1% |

4 compounds picked at random from those above:

| SMILES | activity change (PNC), negative = inhibition |
| --- | --- |
| COc1ccc(CN2C(=O)c3ccccc3C2C(=O)NC2CCCC2)c(OC)c1 (stereo unspecified) | inconclusive: -31.1% |
| O=C(Cc1cccc2ccccc12)Nc1ccc2oc(-c3ccccc3)nc2c1 | inconclusive: -73.1% |
| O=C1CCC(=O)N1CN(C(=O)c1ccco1)c1ccc(Cl)c(Cl)c1 | inconclusive: -36.9% |
| Cc1ccc(CNC(=O)C(=O)NCC2OCCN2C(=O)c2cccs2)cc1 (stereo unspecified) | inactive: 77.1% |

More results

| SMILES | activity change (PNC), negative = inhibition |
| --- | --- |
| CC1=C(C#N)C(Nc2cccc(C)n2)(C(F)(F)F)C(=O)N1 (stereo unspecified) | inconclusive: -30.3% |
| COc1ccccc1NC(=O)c1cccs1 | inconclusive: -40.2% |
| O=C(Nc1sccc1C(=O)NCc1ccco1)c1cccnc1 | inconclusive: -62.5% |
| NC(=O)C1CCCN(C(=O)NC2CCCCC2)C1 (stereo unspecified) | inconclusive: -58.6% |
| Cc1ccc(NC(=O)C(c2ccccc2)C2CCCC2)cc1 (stereo unspecified) | inconclusive: -42.3% |
| O=C(CN1C(=O)COc2ccccc21)N1CCc2ccccc2C1 | inconclusive: -50% |
| COc1ccc(/C(N)=N/OC(=O)Oc2ccccc2)cc1 | inactive: 13.5% |
| Cn1cccc1/C=N/NC(=O)c1ccc(OC(F)(F)C(F)F)cc1 | inconclusive: -40.3% |
| O=C(CCS(=O)(=O)c1ccc(Br)cc1)Nc1ccc2c(c1)OCO2 | inactive: -17.7% |
| CCOC(=O)CNc1ncnc2nc[nH]c12 | inconclusive: -31.2% |
| CSc1nsc(SCC(=O)Nc2c(C)n(C)n(-c3ccccc3)c2=O)n1 | inconclusive: -32% |
| CCSC1=C(C#N)C2(CCCCC2)C(C#N)=C(N)N1 | inactive: 29.9% |
| O=C(CCN1C(=O)c2ccccc2C1=O)Nc1ccc(F)cc1F | inconclusive: -53.2% |
| COCCCNC(=O)c1ccccc1Oc1ccccc1 | inconclusive: -34.3% |
| CN(C)S(=O)(=O)N1CCN(S(=O)(=O)N(C)C)CC1 | inconclusive: -50.2% |
| Cn1nnc2cc(C(=O)NCc3ccc4c(c3)OCO4)ccc21 | inconclusive: -50.5% |
| O=c1[nH]c(CN2CCN(c3ccccc3Cl)CC2)nc2ccsc12 | inactive: 9.77% |
| CCNc1ccc(C(=O)OCC)cc1NC(=O)c1cccc(S(=O)(=O)N2CCOCC2)c1 | inconclusive: -53.5% |
| Cc1ccccc1NC(=O)Cn1cccc1 | inconclusive: -40.2% |
| O=[N+]([O-])c1ccc(Cl)c(CN2CCSCC2)c1 | inconclusive: -67.7% |
| COc1ccc(COC(=O)NNC(=O)c2ccccc2Cl)cc1 | inactive: 48.2% |
| CC(C)COc1ccc(Cc2cnc(N)nc2N)cc1 | inconclusive: -30.2% |
| CCOC(=O)N1CCN(C(=O)CCNS(=O)(=O)c2cc(Br)cnc2N)CC1 | inconclusive: -70.3% |
